This test has as its target T1, WASH1-BioID2-HA (UniProt Q8VDD8).
T1 sequence: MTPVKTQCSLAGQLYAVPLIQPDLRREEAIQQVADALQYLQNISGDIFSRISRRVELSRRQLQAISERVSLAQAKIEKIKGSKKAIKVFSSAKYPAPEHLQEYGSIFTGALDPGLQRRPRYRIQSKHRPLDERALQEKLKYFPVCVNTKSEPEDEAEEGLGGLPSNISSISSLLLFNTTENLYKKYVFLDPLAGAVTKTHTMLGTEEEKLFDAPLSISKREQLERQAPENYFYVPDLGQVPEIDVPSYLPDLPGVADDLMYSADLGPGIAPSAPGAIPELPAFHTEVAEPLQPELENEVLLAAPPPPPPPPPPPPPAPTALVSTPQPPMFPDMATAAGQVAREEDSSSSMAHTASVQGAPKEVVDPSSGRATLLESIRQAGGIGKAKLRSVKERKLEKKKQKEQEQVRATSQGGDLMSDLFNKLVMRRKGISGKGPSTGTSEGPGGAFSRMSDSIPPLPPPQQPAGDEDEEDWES
The test can be described thus: proximity labelling; in vivo BioID (iBioID): AAV hSyn1-WASH1-BioID2-HA in wild-type mouse brain, biotin 24 mg/kg for 7 days, biotinylated proteins purified on NeutrAvidin beads, label-free LC-MS/MS; enrichment over solubleBioID2 control (fold-change >=4, FDR<0.05).

Sequences of proteins named here, by UniProt entry; tags and fusion partners are left off. A change or cut given only in a name is not applied to a line headed by its entry. Residues count along the entry.
UniProt Q4ACU6: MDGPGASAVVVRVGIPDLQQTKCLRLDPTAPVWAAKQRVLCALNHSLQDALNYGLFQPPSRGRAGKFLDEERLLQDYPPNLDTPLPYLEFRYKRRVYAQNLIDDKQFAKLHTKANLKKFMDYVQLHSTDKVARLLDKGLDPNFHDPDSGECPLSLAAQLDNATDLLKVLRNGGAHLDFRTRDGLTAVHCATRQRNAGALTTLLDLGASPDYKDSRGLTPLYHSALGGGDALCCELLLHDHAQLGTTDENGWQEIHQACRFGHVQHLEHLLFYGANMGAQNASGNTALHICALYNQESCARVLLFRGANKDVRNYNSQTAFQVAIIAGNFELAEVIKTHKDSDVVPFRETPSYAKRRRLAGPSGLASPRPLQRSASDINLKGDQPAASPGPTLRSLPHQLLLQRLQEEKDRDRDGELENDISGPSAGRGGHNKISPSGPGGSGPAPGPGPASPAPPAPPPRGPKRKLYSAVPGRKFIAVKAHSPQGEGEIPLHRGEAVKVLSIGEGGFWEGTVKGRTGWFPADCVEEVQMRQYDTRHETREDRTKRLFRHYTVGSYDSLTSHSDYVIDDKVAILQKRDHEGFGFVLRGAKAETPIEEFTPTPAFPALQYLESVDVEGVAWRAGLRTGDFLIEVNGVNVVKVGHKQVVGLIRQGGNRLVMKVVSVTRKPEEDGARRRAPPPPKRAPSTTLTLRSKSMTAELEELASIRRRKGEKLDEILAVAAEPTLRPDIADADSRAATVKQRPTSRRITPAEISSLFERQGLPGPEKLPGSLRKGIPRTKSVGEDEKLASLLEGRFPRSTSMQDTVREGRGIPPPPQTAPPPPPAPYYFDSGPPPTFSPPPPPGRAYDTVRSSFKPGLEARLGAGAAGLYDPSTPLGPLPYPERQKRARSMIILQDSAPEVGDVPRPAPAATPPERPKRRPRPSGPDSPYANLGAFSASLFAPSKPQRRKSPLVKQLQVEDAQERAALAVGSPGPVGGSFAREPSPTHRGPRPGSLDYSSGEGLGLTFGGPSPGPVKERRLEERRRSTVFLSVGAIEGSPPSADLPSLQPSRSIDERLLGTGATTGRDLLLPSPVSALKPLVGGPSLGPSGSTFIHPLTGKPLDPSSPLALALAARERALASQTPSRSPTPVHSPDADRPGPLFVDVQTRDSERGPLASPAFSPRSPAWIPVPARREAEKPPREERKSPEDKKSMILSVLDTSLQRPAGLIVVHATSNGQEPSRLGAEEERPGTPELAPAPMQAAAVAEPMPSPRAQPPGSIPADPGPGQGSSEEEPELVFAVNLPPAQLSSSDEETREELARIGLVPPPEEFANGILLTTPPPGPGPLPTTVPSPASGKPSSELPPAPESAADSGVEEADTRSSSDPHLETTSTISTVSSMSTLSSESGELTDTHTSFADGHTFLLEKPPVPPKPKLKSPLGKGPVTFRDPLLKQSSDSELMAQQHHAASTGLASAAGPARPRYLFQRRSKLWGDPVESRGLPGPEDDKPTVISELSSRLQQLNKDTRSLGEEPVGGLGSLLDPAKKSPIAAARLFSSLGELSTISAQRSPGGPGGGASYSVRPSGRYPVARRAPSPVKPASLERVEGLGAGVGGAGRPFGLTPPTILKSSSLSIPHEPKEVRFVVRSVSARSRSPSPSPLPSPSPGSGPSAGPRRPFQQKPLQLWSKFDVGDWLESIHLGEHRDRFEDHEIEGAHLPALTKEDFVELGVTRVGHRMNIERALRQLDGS
UniProt Q7TQK5: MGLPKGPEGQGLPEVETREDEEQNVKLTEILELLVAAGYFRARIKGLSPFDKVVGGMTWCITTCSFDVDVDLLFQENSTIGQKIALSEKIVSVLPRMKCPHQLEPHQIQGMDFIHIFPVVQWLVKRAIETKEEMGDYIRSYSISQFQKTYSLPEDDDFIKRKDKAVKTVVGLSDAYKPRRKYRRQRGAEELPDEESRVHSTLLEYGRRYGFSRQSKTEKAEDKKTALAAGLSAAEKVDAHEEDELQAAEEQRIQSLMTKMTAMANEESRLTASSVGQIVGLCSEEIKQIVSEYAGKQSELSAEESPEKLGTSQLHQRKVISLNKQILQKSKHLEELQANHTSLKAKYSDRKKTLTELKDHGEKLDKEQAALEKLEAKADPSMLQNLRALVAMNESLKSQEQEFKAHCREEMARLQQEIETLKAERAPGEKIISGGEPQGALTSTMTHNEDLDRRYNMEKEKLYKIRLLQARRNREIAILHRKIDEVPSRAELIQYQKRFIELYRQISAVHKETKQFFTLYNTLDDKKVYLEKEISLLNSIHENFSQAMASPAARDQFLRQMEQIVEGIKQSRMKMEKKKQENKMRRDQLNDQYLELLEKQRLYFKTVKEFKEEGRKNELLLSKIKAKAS
UniProt Q8BWQ6: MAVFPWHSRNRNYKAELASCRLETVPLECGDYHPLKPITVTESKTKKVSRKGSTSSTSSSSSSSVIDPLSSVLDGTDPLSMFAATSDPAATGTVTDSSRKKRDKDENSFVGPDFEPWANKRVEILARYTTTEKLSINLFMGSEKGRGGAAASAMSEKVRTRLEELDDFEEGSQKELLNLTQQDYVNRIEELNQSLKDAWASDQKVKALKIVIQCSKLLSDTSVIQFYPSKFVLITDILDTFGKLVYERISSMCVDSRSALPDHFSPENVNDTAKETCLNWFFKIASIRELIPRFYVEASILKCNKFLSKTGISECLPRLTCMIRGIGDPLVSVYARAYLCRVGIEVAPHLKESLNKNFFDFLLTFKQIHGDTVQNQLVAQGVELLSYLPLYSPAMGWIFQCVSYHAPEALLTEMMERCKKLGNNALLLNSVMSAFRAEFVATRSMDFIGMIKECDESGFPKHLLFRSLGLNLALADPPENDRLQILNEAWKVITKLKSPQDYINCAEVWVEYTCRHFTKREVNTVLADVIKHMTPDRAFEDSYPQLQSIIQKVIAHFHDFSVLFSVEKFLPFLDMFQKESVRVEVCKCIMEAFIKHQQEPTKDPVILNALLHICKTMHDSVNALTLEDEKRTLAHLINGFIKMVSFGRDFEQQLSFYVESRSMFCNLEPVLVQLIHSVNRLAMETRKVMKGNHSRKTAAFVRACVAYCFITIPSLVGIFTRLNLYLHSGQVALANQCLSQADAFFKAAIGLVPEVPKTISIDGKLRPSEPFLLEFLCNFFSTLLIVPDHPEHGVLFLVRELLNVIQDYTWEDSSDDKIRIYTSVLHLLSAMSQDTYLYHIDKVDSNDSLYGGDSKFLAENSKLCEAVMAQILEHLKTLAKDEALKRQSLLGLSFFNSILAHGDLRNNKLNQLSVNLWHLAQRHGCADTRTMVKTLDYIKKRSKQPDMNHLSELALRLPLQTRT
UniProt Q3UH99, residues 31-525: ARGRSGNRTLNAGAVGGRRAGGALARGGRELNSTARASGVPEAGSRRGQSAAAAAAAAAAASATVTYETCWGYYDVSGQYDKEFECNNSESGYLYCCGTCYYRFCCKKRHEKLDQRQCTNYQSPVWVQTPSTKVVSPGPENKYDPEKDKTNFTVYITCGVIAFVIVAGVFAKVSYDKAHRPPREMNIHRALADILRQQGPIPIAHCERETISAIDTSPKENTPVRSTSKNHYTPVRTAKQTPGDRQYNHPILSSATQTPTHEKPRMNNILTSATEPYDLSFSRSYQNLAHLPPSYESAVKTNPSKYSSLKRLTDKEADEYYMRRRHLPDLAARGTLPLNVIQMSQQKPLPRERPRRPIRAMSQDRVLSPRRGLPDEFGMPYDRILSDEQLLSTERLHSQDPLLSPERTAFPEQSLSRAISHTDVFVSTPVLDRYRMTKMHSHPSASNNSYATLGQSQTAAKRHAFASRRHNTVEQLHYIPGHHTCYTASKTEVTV
UniProt Q8K2Q0: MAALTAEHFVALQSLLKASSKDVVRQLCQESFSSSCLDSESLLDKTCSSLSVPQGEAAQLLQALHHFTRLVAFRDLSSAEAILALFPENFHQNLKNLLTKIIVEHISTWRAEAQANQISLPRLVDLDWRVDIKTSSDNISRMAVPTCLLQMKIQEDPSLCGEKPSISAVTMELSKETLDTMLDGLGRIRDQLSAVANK

No constants are given. Whether binding was seen depends on the method and setting. In cells and extracts the contact can be indirect. Here binding means that the protein was enriched with, or labelled near, the bait; the list need not be complete. Where a sequence is shown, tags or fusion partners need not be part of it.

Regarding SHANK3 (from UniProt Q4ACU6 1-1730), the binding entry is given as “binds”.

Consider CCDC93 (from UniProt Q7TQK5 1-629), for which the binding entry is “binds”.

Turning to SYNGAP1 (from UniProt F6SEU4 1-1340), the binding result is on record as “binds”. The same measure for VPS35L (from UniProt Q8BWQ6 1-963): “binds”; for SHISA6 (from UniProt Q3UH99 31-525): “binds”. For COMMD9 (from UniProt Q8K2Q0 1-198), the binding result is “binds”.

B1: DLGAP2 (protein, UniProt Q8BJ42 1-1059)
chain: MGTAQVLPGILQKHCCILPDRNTESQCTLCGEPEEEEGGDLAQPGLSFPGPAEEDIDQQYSWSPTQHFNEERYSPAPRNMKGLTGSRNQPQLCAGHTCGLSPPDDCEHPHDHMHHGSDVRQPYLLSPAESCPMDHHRCSPRSSVHSECMMMPVMLGDHVSSSTFPRMHYSSHYDTRDDCAMSHTSTKVNRIPANLLDQFEKQLPLHRDGFHTLQYQRASAATEQRNESPGRIRHLVHSVQKLFTKSHSLEGSSKSNINGTKSDSRVDDHHQSHLSKHSKRSKSKERKPESKHKSGMSSWWSSDDNLDSDSTYRTPSVAHRHHMDHIPHCYPEALQSPFGDLSLKTSKSNNDVKCSACEGLALTPDTRYMKRSSWSTLTVSQAKEAYRKSSLNLDKPLVHPEIKPSLRPCHYLQVPQDDWGAYPTGGKEEEIPCRRMRSGSYIKAMGDEESGESDSSPKTSPTVAIRPEPLLKPIIQRPLGDHQTQSYLQAATEVPVGHSLNPSINYNSPKFRSRNQSYMRAVSTLSQASCVSQMSEAEVNGQFESVCESVFSEVESQAMDALDLPGCFRTRSHSYLRAIQAGYSQDDECIPVMTSSNMTSTIRSTAAVSYTNYKKTPPPVPPRTTSKPLISVTAQSSTESTQDAYQDSRAQRMSPWPQDSRGGLYNSMDSLDSNKAMNLALETAAAQRHAADTQSSSTRSIDKAVLASKAEELLKSRCSSIGVQDSEFPDHQPYPRSDVETATDSDTESRGLREYHSVGVQVEDEKRHGRFKRSNSVTAAVQADLELEGFPGHVSMEDKGLQFGSSFQRHSEPSTPTQYGALRTVRTQGLFSYREDYRTQVDTSTLPPPDPWLEPSLDTVETGRMSPCRRDGSWFLKLLHTETKRMEGWCKEMEREAEENDLLEDILGKIRSAVGSAQLLMSQKFQQFYWLCQQNMDPSAMPRPTSQDLAGYWDMLQLSVEDVSMKFDELHQLKLNDWKIIESPERKEERKIPPPIPKKPPKGKFPITREKSLDLPDRQRQEARRRLMAAKRAASFRQNSATERADSIEIYIPEAQTRL
On to B1, for which the binding entry is given as “binds”.

B2: WASHC2 (FAM21) (protein, UniProt Q6PGL7 1-1334)
chain: MNRTSPDSERPPASEPVWERPWSVEEIRRSSQNWSLAADAGLLQFLQEFSQQTISRTHEIKKQVDGLIQETKATHCRLHNVFNDFLMLSNTQFIENRVYDEEVEEQVLKAEAEKAEQEKTREQKEIDLIPKVQEAVNYGLQVLDSAFEQLDIKAGNSDSEEDDANERVDLILEPKDLYIDRPLPYLIGSKLFMEQEDVGLGELSSEEGSVGSDRGSIVDSEDEKEEEESDEDFASHSDNDQNQHTTQISDEEEDDDGDLFADSEKEGDDIEDIEESAKSKRPTSFADELAARIKGDISNQRKEGQTDGKPQKTVKEKKERRTPADDEEDILFPPPTLTDEDFSPFGSRGGLFSNGQGLFDDEDESDLFKEAPRARPAQAPVSEELPPSPKPGKKIPAGAVSVLLGHPDVSGSTSAPSLKELQKHGQPTPGKSSHLPTPAGLFDDDDNDNDEDDNNFFMPSSSKPSKTDKVKSTAIIFDDDEGDLFKEKAEALPAASVSQTHESKTRADKTIALPSSKNLKLVSETKTQKGLFSDEEDSEDLFSSQSSSKPKSASLPSSQPPTSVSLFGDEDEEDSLFGSAAAKKQTSSLQPQSQEKAKPSEQPSKKTSALLFSSDEEDQWNIADSHTKLASDNKSKGELWDSGATQGQEAKAVKKTNLFEDDDDDEVDLFAIAKDSQKKTQRTSLLFEDDAESGSSLFGLPPTSVPSATTKKESVPKVPLLFSDEEDSEVPSGVKPEDLKVDNARVSPEVGSADVASIAQKEGLLPASDQEAGGPSDIFSSSSPLDKGAKGRTRTVLSLFDEDEDKVEDESSTCAPQDGREKGLKTDSRPKSTGVFQDEELLFSHKLQKDNDPDVDLFAGTKKIRSSVPSGGSLFGDDEDDDLFSSAKTQPVVPEKKGTLKKDHPVSLKNQDPLDSTQGSKEKSTWKTEPAQDSSGLTPFKSREPSSRIGKIQANLAINPAALLPTVALQIPGTKPVSSELAFPSSEPGRSHILESVPTLPGSVEAGVSFDLPAQADTLHSANKSRVKVRGKRRPQTRAARRLAAQESSEAEDVTVDRGPVAQLSSSPVLPNGHQPLLQPRMASGQTSSETATAPPWEGGPVLSAADRSFFVKSRPQTGNEADLFDSGDIFPKSRGSQSVEGAGVMAGEPPSHSSGGRKEKSLAFPDLSEGSSTEDLFQSVKPRAAKNRNPFPLLEDEEDLFADPRGKKNERKPDSHQDSVSKTHDIFEDDIFATEAIKPFPKKREKGRTLEPNLFDDNIDIFADLTVKPKEKSKKKVAAKSMFDDDTDDIFSSGLQAKASKPKSQSAEAASEQRSEHKVASIFDDPLNAFGSQ
As for B2, the binding entry is listed as “binds”.

B3: SNX16 (protein, UniProt Q8C080 1-344)
chain: MATPYVPVPMPIGNSASSFTNNRNQRSSSFGSVSTSSTSSKGQLEDSAVGSLKQTNVQDQMDSASSMCGSPLIRTKFTGTDSSIEYSARPREAEEQHPEAVNWEDRPSTPTILGYEVMEERAKFTVYKILVKKSPEESWVVFRRYTDFSRLNDKLKEMFPGFRLALPPKRWFKDNYNAEFLEDRQLGLQAFLQNLVAHKDIANCLAVREFLCLDDPPGPFDSLEESRAFCETLEETNYHLQRELLEKQKEVESLKKLLGEKQLHIDALETRIRTLSLEPGASLYVSRAEGGQILRVEPSVLQVNRDVLDEESRADHKPHFNSREAGSVIAGIEVAQLAYNAEDD
Turning to B3, the binding entry is reported as “binds”.

B4: DLGAP3 (protein, UniProt Q6PFD5 1-977)
chain: MRGYHGDRGSHPRPARFADQQHMDVGPAARAPYLLGSREAFSTEPRFCAPRAGLGHLSPEGPLSLSEGPSSVGPEGGPGGVGAGGGSSTFPRMYPGQGPFDTCEDCVGHPQGKGATRLPPTLLDQFEKQLPVQQDGFHTLPYQRGPAGPGPGPGSGAAPEARSESPSRIRHLVHSVQKLFAKSHSLEAPGKRDYNGPKADGRGSSGGDSYSGPGSGGTPTSHHHHHHHHHHHHQSRHGKRSKSKDRKGDGRHQTKATGWWSSDDNLDSDSGFLGGRPPGEPGGPFCLDAPDGSYRDLSFKGRSGGSEGRCLACTGMSMSLDGQSVKRSAWHTMMVSQGRDGYPGAGPGKGLLGPETKAKARTYHYLQVPQDDWGGYPTGGKDGEIPCRRMRSGSYIKAMGDEESGDSDGSPKTSPKALARRFASRRSSSVDTARINCCVPPRIHPRSSIPGYSRSLTTGQLSEEFNQQLEAVCGSVFGELESQAVDALDLPGCFRMRSHSYLRAIQAGCSQDDDCLPLLAAPASVSGRPGSSFNFRKAPPPIPPGSQAPPRISITAQSSTDSAHESFTAAEGPARRCSSADGLDGPTMGARTLELAPVPPRASPKPPTLIIKTIPGREELRSLARQRKWRPSIGVQVETISDSDTENRSRREFHSIGVQVEEDKRRARFKRSNSVTAGVQADLELEGLAGLATVATEDKALQFGRSFQRHASEPQPGPRAPTYSVFRTVHTQGQWAYREGYPLPYEPPATDGSPGPTPVPAPGPGSGRRDSWMERGSRSLPDSGRTSPCPRDGEWFIKMLRAEVEKLEHWCQQMEREAEDYELPEEILEKIRSAVGSTQLLLSQKVQQFFRLCQQSLDPTAFPVPTFQDLAGFWDLLQLSIEDVTLKFLELQQLKANSWKLLEPKEEKKVPPPIPKKPSRGRGVPVKERSLDSVDRQRQEARKRLLAAKRAASFRHSSATESADSIEIYIPEAQTRL
Take B4: the binding result is on record as “binds”.

B5: SHANK2 (protein, UniProt Q80Z38 1-1476)
chain: MKSLLNAFTKKEVPFREAPAYSNRRRRPPNTLAAPRVLLRSNSDNNLNAGAPEWAVCSAATSHRSLSPQLLQQTPSKPDGATKSLGSYTPGPRSRSPSLNRLGGTAEDGKRTQPHWHVGSPFTPGANKDSLSTFEYPGPRRKLYSAVPGRLFVAVKPYQPQVDGEIPLHRGDRVKVLSIGEGGFWEGSARGHIGWFPAECVEEVQCKPRDSQAETRADRSKKLFRHYTVGSYDSFDAASDCIIEDKTVVLQKKDNEGFGFVLRGAKADTPIEEFTPTPAFPALQYLESVDEGGVAWQAGLRTGDFLIEVNNENVVKVGHRQVVNMIRQGGNHLILKVVTVTRNLDPDDTARKKAPPPPKRAPTTALTLRSKSMTAELEELGLSLVDKASVRKKKDKPEEIVPASKPSRTAENVAIESRVATIKQRPTSRCFPAASDVNSVYERQGIAVMTPTVPGSPKGPFLGLPRGTMRRQKSIDSRIFLSGITEEERQFLAPPMLKFTRSLSMPDTSEDIPPPPQSVPPSPPPPSPTTYNCPRSPTPRVYGTIKPAFNQNPVVAKVPPATRSDTVATMMREKGMFYRRELDRFSLDSEDVYSRSPAPQAAFRTKRGQMPENPYSEVGKIASKAVYVPAKPARRKGVLVKQSNVEDSPEKTCSIPIPTIIVKEPSTSSSGKSSQGSSMEIDPQATEPGQLRPDDSLTVSSPFAAAIAGAVRDREKRLEARRNSPAFLSTDLGDEDVGLGPPAPRMQASKFPEEGGFGDEDETEQPLLPTPGAAPRELENHFLGGGEAGAQGEAGGPLSSTSKAKGPESGPAAPLKSSSPAGPENYVHPLTGRLLDPSSPLALALSARDRAMQESQQGHKGEAPKADLNKPLYIDTKMRPSVESGFPPVTRQNTRGPLRRQETENKYETDLGKDRRADDKKNMLINIVDTAQQKSAGLLMVHTVDVPMAGPPLEEEEDREDGDTKPDHSPSTVPEGVPKTEGALQISAAPEPAVAPGRTIVAAGSVEEAVILPFRIPPPPLASVDLDEDFLFTEPLPPPLEFANSFDIPDDRAASVPALADLVKQKKNDTSQPPTLNSSQPANSTDSKKPAGISNCLPSSFLPPPESFDAVTDSGIEEVDSRSSSDHHLETTSTISTVSSISTLSSEGGESMDTCTVYADGQAFVVDKPPVPPKPKMKPIVHKSNALYQDTLPEEDTDGFVIPPPAPPPPPGSAQAGVAKVIQPRTSKLWGDVPEVKSPILSGPKANVISELNSILQQMNRGKSVKPGEGLELPVGAKSANLAPRSPEVMSTVSGTRSTTVTFTVRPGTSQPITLQSRPPDYESRTSGPRRAPSPVVSPTELSKEILPTPPPPSATAASPSPTLSDVFSLPSQSPAGDLFGLNPAGRSRSPSPSILQQPISNKPFTTKPVHLWTKPDVADWLESLNLGEHKETFMDNEIDGSHLPNLQKEDLIDLGVTRVGHRMNIERALKQLLDR
As to B5, the binding result is recorded as “binds”.

Source of the values: PMC7984842, “Genetic disruption of WASHC4 drives endo-lysosomal dysfunction and cognitive-movement impairments in mice and humans” (eLife, 2021).
